Measured values from patent US20110189284A1, “Peptide Fibres” (UNIVERSITY OF BRISTOL, priority 2009, published 2011).
Results are given in words; binding and its absence hold for the method and conditions named. Some binding calls cover weakened binding; strength is not graded here.

Target: T1, hSAFAAA-W p2
T1 sequence (peptide): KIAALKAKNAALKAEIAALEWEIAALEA
Test: CD, TEM and gel formation of the mixed peptides

B1: hSAFAAA-W p1 (peptide)
peptide: KIAALKAKIAALKAEIAALEWENAALEA
- binding: binds
